Hit rate of the full screen: of about 400,000 compounds, about 5,500 (1.4%) were called active. The inconclusive results got no clear call from the source; some entries with a clear call stand among them for comparison. Calls follow the shape of the dose curve; as a rule, active = well fitted cell-killing curve with a large enough effect; inconclusive = small, poorly fitted or top-dose-only effect, or effect the other way; inactive = flat fitted curve, though single readings scatter. Where the call is inconclusive, the potency comes from a doubtful curve fit.
Experiment: qHTS assay for MDR1-selective chemotherapeutics: Primary screen using the parental adenocarcinoma cell KB-3-1; also: nearly all actives have a fitted effect of over 60% in size
Conditions: KB-3-1 viability, CellTiter-Glo ATP luminescence, 72 h; activity change, negative = cytotoxic: at 46.1 µM (top of the series)
Text: A prime difficulty in effectively treating cancer is the development of cellular resistance to multiple structurally unrelated anticancer drugs, a phenomenon known as multidrug resistance (MDR). […] Numerous strategies to overcome P-gp-mediated MDR have been explored, including the design of drugs that evade recognition and efflux, and development of inhibitors to block efflux and restore drug accumulation. […] An alternative approach is to exploit resistance by identifying drugs that target MDR cells over the non-resistant parental cells from which they were selected. […] The development of MDR1-selective agents represents a new strategy for resolving multidrug resistance, as it remains a long-standing clinical challenge for cancer chemotherapy.
Our goal is to identify compounds that selectively kill P-gp-expressing MDR cells. We will identify MDR1-selective compounds by comparing toxicity of compounds in the screening library against parental, drug-naive (KB-3-1) adenocarcinoma cells as well as their drug-selected MDR sub-line (KB-V1). The differential toxicity of compounds against these two cell lines will be used to identify MDR1-selective compounds, whose cytotoxicity is potentiated, rather than diminished, by P-gp expression. This assay will be utilized to conduct a quantitative high-throughput screen (qHTS) in collaboration with the NIH Chemical Genomics Center to identify selective agents, and probe hits arising from the screen will be validated using secondary assays and characterized through a well-established follow-up research program. This screen was run against the entire NCGC library collection of about 400,000 compounds.
NIH Molecular Libraries Probe Production Network [MLPCN]
NIH Chemical Genomics Center [NCGC]
PI: Michael Gottesman PhD, National Cancer Institute, NIH
Briefly, 5 microL of media containing either KB-3-1 cells (columns 1-2, 4-48) are dispensed into Greiner white, treated solid-bottom 1536-well assay plates (media-only control is added to column 3). Compounds are then transferred via Kalypsys pin tool equipped with 1536-pin array (10 nL slotted pins, V&P Scientific, San Diego, CA). Following addition of compound, the plates are incubated at 37 degrees C for 72 hours. CellTiter-Glo (2.5 µL/well) is then added, and the plates are read in a ViewLux reader (Perkin-Elmer, clear luminescence filter, 1 second exposure, 1x binning) following a 10 minute incubation. All cells are dispensed in DMEM phenol-red free media containing 10% FBS.
Library plates were screened starting from the lowest and proceeding to the highest concentration. Vehicle-only plates, with DMSO being pin-transferred to columns 5-48, will be inserted uniformly at the beginning and the end of each library in order to monitor and record any shifts in the background, which can be affected by reagent dispensers or loss in enzyme activity over time. Screening data will be corrected, normalized, and concentration-effect relationships will be derived by using publicly-available NCGC, NCATS curve fitting algorithms (http://ncgc.nih.gov/pub/openhts).
% is scaled to controls: 0 for no effect and ±100 for the full control effect; potency is read from the fitted curve at half-maximal effect.

SMILES	Potency	activity change, negative = cytotoxic
Cc1ccnc(NC(=O)c2ccc(OCC3CCCO3)cc2)c1 (centres undefined)	inconclusive: 29.1 µM [cytotoxic, single point]	–
O=C(NCCc1ccc(Cl)cc1)C(=O)NCC(c1ccco1)S(=O)(=O)c1ccc(Cl)cc1 (centres undefined)	inconclusive: 8.2 µM [cytotoxic, single point]	–
COc1cc(CN2CCCC(C(=O)c3ccc4c5c(cccc35)CC4)C2)cc(OC)c1O (centres undefined)	inconclusive: 29.1 µM [cytotoxic, single point]	–
Cc1c(Cl)cccc1NC(=S)NCCC(c1ccccc1)c1ccccc1	inconclusive: 29.1 µM [cytotoxic, single point]	–
O=C(c1ccccc1)c1sc(N2CCCCCC2)nc1-c1ccccc1	inconclusive: 29.1 µM [cytotoxic, single point]	–
c1coc(-c2nc3n(n2)C2(CCCCC2)[C@@H]2CCCC[C@@H]2N3)c1	–	inactive: 2.43%
COCCNC(=O)c1nn2c(C(F)(F)F)cc(-c3ccccc3)nc2c1Cl	–	inactive: -0.581%
O=C(Nc1ccc(C(=O)O)cc1)/C(=C\c1ccco1)NC(=O)c1ccco1	inconclusive: 29.1 µM [rising, single point]	–
COc1cc2c(cc1OC)C(c1cc(-c3cc(Cl)ccc3Cl)oc1C)=NCC2	inconclusive: 29.1 µM [cytotoxic, single point]	–
O=C(NCc1nc2ccccc2[nH]1)C1=C[C@H](C2CCCCC2)C[C@H](OCc2ccc(CO)cc2)O1	inconclusive: 29.1 µM [cytotoxic, single point]	–
CC(=O)c1cccc(NC(=O)c2ccc(N(C)S(C)(=O)=O)cc2)c1	inconclusive: 29.1 µM [cytotoxic, single point]	–
Cc1c(C)n(Cc2ccccc2)c2ccc(C(=O)OCCCN(C)C)cc12	inconclusive: 16.4 µM [cytotoxic, single point]	–
Cc1ccc(S(=O)(=O)c2nc(S(C)(=O)=O)sc2N(C)Cc2ccccc2)cc1	–	inactive: -8.01%
N#Cc1c(N)n(-c2cccc(Cl)c2)c2nc3ccccc3nc12	–	inactive: -1.48%
Cc1nn2c(=O)cc(COc3ccc(/C=C(\C#N)C(=O)Nc4ccc(F)cc4)cc3)nc2s1	–	inactive: 6.59%
CCN1C(=O)Cc2cc(S(=O)(=O)NCCc3ccccc3)ccc21	–	inactive: -14.1%
O=C(Nc1ccccc1)Nc1ccc(F)c([N+](=O)[O-])c1	inconclusive: 29.1 µM [cytotoxic, single point]	–
COC(=O)C1CCN(C2CN(Cc3ccccc3)S(=O)(=O)C2)CC1 (centres undefined)	–	inactive: -0.05%
Cc1c(S(=O)(=O)N2CCCC(C(=O)O)C2)cnn1C (centres undefined)	inconclusive: 0.0046 µM [rising, full curve, poor fit]	–
O=C(NNC(=O)c1cccc(-n2cccc2)c1)c1ccccc1	inconclusive: 29.1 µM [rising, single point]	–
CCOC(=O)COc1ccccc1C1C(C(=O)OC)=C(C)NC2=C1C(=O)c1ccccc12 (centres undefined)	–	inactive: -4.72%
CCOC(=O)c1c(NC(=O)CSc2nnc(-c3c[nH]c4ccccc34)n2CC)sc2c1CCCC2	inconclusive: 16.4 µM [cytotoxic, single point]	–
Cc1ccc(NCc2nnc(SCC(=O)N3c4ccccc4Sc4ccccc43)o2)c(C)c1	–	inactive: -24.9%

SMILES	Potency	activity change, negative = cytotoxic
CCN(CC)C(=O)c1cnn(-c2ccccc2)c1NC(=O)c1ccco1	–	inactive: 3.65%
C[C@]12C=CC(=O)C=C1CC[C@@H]1[C@@H]2[C@@H](O)C[C@@]2(C)[C@H]1CC[C@]2(O)C(=O)COC(=O)CCC(=O)O	–	inactive: 0%
CCOc1ccc(CNc2nc3nc(C)c(Cc4ccccc4)c(=O)n3[nH]2)cc1	–	inactive: 0.253%
O=c1[nH]c2ccccc2nc1/C=C(\O)c1cccs1	inconclusive: 3.66 µM [rising, full curve, poor fit]	–
Cc1ccccc1[C@H](NC1c2ccccc2C=Cc2ccccc21)P(=O)(c1ccccc1)c1ccccc1	inconclusive: 23.1 µM [cytotoxic, single point]	–
CCOC(=O)c1cc(NC(=O)Nc2ccccc2OC)c(C)nc1C	inconclusive: 22.4 µM [cytotoxic, single point]	–
Cc1ccc(C2CN(C)C3(C(=O)Nc4ccccc43)C23COc2ccccc2C3=O)cc1 (centres undefined)	inconclusive: 18.4 µM [cytotoxic, single point]	–
Cc1ccc(C)c(C(=O)COc2ncnc3ccccc23)c1	inconclusive: 23.1 µM [rising, partial curve]	–
Cc1cc(C)cc(Nc2nc(-c3ccc(S(=O)(=O)N4CCCC4)cc3)cs2)c1	active: 4.61 µM	–
CN1CCN(c2ccccc2NC(=O)c2ccc(-c3ccccc3[N+](=O)[O-])o2)CC1	inconclusive: 8.2 µM [cytotoxic, partial curve]	–
Cc1n[nH]c(C)c1CCCCOc1ccccc1[N+](=O)[O-]	inconclusive: 23.1 µM [cytotoxic, single point]	–
COc1ccc(OC)c(S(=O)(=O)Nc2ccc(-c3ccc4nncn4n3)cc2)c1	active: 18.4 µM	–
COc1ccccc1Cc1c(-c2ccc(F)cc2)nc2cc(C)c(Br)c(C)n12	inconclusive: 29.1 µM [cytotoxic, single point]	–
CCN(CC)C(=O)CCSc1nnc(-c2ccncc2)o1	inconclusive: 20.6 µM [rising, partial curve, poor fit]	–
Cc1ccc(/C=C(\C#N)C(=O)NCC2CCCO2)o1 (centres undefined)	inconclusive: 23.1 µM [rising, single point]	–
CCN1/C(=C/C=C/C=C/C=C/c2sc3ccccc3[n+]2CC)Sc2ccccc21	active: 16.4 µM	–
CN1OC[C@@H]2CN(S(=O)(=O)c3cc(Cl)cc(Cl)c3)[C@H](c3ccc(-c4ccc(C#N)cc4)cc3)C[C@@H]21	–	inactive: -10%
O=C(c1ccc(N2CCCC2=O)cc1)N1CCN(c2ccccc2F)CC1	–	inactive: -0.526%
COc1ccc(C(=O)/C=C/c2ccc3c(c2)OCCO3)cc1	–	inactive: 8.31%
CCC(CC)CC1CN2CCc3cc(OC)c(OC)cc3C2CC1(O)CC (centres undefined)	inconclusive: 23.1 µM [cytotoxic, partial curve, poor fit]	–
CCn1cc(C(=O)NCCCN2CCCC(C)C2)c(=O)c2cc(S(=O)(=O)N3CCc4ccccc4C3)ccc21 (centres undefined)	inconclusive: 29.1 µM [cytotoxic, single point]	–
COc1ccc(S(=O)(=O)N2N=C(C)Oc3ccccc3C2=O)cc1	active: 4.61 µM	–
CN(CC(=O)Nc1cccc(F)c1)CC(=O)Nc1cccc2ccccc12	inconclusive: 20.6 µM [cytotoxic, single point]	–

Some of these compounds in order of heavy-atom count, high to low:
SMILES	Potency	activity change, negative = cytotoxic
C[C@]12C=CC(=O)C=C1CC[C@@H]1[C@@H]2[C@@H](O)C[C@@]2(C)[C@H]1CC[C@]2(O)C(=O)COC(=O)CCC(=O)O	–	inactive: 0%
CCOc1ccc(CNc2nc3nc(C)c(Cc4ccccc4)c(=O)n3[nH]2)cc1	–	inactive: 0.253%
COc1ccc(C(=O)/C=C/c2ccc3c(c2)OCCO3)cc1	–	inactive: 8.31%

The results go on:

SMILES	Potency	activity change, negative = cytotoxic
Clc1ccc(C(c2ccccc2)c2c[nH]c3ccccc23)s1 (centres undefined)	inconclusive: 29.1 µM [cytotoxic, single point]	–
Cc1ccc(C)c(S(=O)(=O)N2CCN(C(=O)c3cc(-c4cccs4)nn3-c3ccccc3)CC2)c1	inconclusive: 29.1 µM [cytotoxic, single point]	–
O=C(Nc1ccc(S(=O)(=O)N2CCCCC2)cc1)c1ccc(=O)[nH]c1	inconclusive: 29.1 µM [cytotoxic, single point]	–
C=CCNC(=S)N/N=C/c1ccc(-c2ccc(Br)cc2)o1	–	inactive: -25.7%
O=C(Cc1cccc(C(F)(F)F)c1)Nc1ccccc1	–	inactive: 2.26%
COc1ccccc1N1CCN(c2nnc(-c3ccc(F)cc3)c3ccccc23)CC1	inconclusive: 5.17 µM [cytotoxic, full curve]	–
COc1cccc(CN(C)C(=O)C(Cc2ccccc2)NC(=O)c2ccccc2)c1OC (centres undefined)	–	inactive: 8.08%
CCOc1ccc(Cl)cc1-c1cc(C(=O)Nc2ccc(Br)cc2)[nH]n1	inconclusive: 29.1 µM [cytotoxic, single point]	–
Cn1c(CN2CCCCC2)nc2cc(NC(=O)c3ccccc3Cl)ccc21	inconclusive: 29.1 µM [cytotoxic, single point]	–
O=C(COC(=O)CNC(=O)c1ccco1)Nc1ncc(Cl)cc1Cl	–	inactive: -6.42%
OC(CN1CCN(Cc2ccccc2)CC1)c1ccc(F)cc1 (centres undefined)	–	inactive: 4.99%
COc1ccc(C2=NOC(C(=O)NCc3ccco3)C2)cc1OC (centres undefined)	inconclusive: 3.66 µM [cytotoxic, full curve, poor fit]	–
CCCCc1c(C)nc2c(-c3ccc(OC)cc3)c(C)[nH]n2c1=O	inconclusive: 18.4 µM [cytotoxic, single point]	–
CN(C)C(=O)CCc1ccc2c3c([nH]c2c1)[C@]1(C)[C@@H](C(=O)N2CCOCC2)C[C@H](CC(=O)NCc2cccc(C(F)(F)F)c2)C(=O)N1CC3	–	inactive: 0%
Cc1ccc(S(=O)(=O)c2cc3ccccc3oc2=O)cc1	inconclusive: 9.2 µM [cytotoxic, partial curve, poor fit]	–
Cc1ccc(Cc2cnc(NC(=O)/C(C#N)=C/c3ccc(-c4cccc([N+](=O)[O-])c4)o3)s2)cc1	active: 14.6 µM	–
Cc1[nH]n(-c2ccc(Br)cc2)c(=O)c1/C=N/NC(=O)c1ccccc1	active: 7.31 µM	–
O=C1/C(=C/c2ccncc2)SC(=S)N1C1CCS(=O)(=O)C1 (centres undefined)	inconclusive: 20.6 µM [cytotoxic, single point]	–
CCOC(=O)c1cccc(NS(=O)(=O)c2ccc(-c3cnc(C4CC4)o3)cc2)c1	inconclusive: 18.4 µM [cytotoxic, single point]	–
NC(=O)c1nc(Nc2ccccc2)sc1NC(=O)c1ccccc1Br	–	inactive: 0.414%
COc1ccc(Nc2ccc(S(=O)(=O)N3CCCCCC3)cc2[N+](=O)[O-])cc1	inconclusive: 29.1 µM [cytotoxic, single point]	–
COc1ccc2c(c1)Sc1ccccc1N2CCN(C)C	–	inconclusive: -38.9% [cytotoxic]
O=C(Nc1ccc2c(c1)Cc1ccccc1-2)c1cc2ccccc2o1	inconclusive: 29.1 µM [cytotoxic, single point]	–

Some values from the results shown:
activity change, negative = cytotoxic, COC(=O)C1CCN(C2CN(Cc3ccccc3)S(=O)(=O)C2)CC1 (centres undefined) reads inactive: -0.05%
activity change, negative = cytotoxic, CN(C)C(=O)CCc1ccc2c3c([nH]c2c1)[C@]1(C)[C@@H](C(=O)N2CCOCC2)C[C@H](CC(=O)NCc2cccc(C(F)(F)F)c2)C(=O)N1CC3 reads inactive: 0%
